Experimental findings from paper doi:10.1101/2023.09.12.557434 are described below.

Amino acid sequences for entries named in this document (tags omitted). A change or cut given only in a name is not applied to a line headed by its entry. Residues count along the entry.
UniProt P93002: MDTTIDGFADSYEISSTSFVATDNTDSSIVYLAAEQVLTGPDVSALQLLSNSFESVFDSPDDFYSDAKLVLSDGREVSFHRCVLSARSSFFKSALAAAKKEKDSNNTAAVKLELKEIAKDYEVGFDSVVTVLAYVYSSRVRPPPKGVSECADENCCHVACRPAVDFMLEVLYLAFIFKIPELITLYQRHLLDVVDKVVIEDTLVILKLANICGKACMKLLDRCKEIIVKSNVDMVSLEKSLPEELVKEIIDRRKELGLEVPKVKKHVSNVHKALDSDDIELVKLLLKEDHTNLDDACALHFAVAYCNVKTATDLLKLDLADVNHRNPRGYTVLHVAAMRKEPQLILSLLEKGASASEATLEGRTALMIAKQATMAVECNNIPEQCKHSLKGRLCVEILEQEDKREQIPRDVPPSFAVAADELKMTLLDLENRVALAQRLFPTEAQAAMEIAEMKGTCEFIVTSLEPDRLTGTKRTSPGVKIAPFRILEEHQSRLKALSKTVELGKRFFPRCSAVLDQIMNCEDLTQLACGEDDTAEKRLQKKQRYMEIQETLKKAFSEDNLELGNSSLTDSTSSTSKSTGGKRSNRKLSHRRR
BD-NPR1^1-194: residues 1-194 of P93002
BD-NPR1^178-593: residues 178-593 of P93002

No constants are given. Whether binding was seen depends on the method and setting. Some entries that bind do so weakly or less than the wild type. Tags and fused reporters may be left off the sequences shown.

Holding throughout (assay): two-hybrid
The target of assay [1] is BD-NPR1 (Non-expresser of PR genes 1, full length, in pGBKT7) (Arabidopsis) (UniProt P93002).
For assay [2], the target named is T1, BD-TGA5 (full length, in pGBKT7) (Arabidopsis) (UniProt Q39163).
T1 sequence: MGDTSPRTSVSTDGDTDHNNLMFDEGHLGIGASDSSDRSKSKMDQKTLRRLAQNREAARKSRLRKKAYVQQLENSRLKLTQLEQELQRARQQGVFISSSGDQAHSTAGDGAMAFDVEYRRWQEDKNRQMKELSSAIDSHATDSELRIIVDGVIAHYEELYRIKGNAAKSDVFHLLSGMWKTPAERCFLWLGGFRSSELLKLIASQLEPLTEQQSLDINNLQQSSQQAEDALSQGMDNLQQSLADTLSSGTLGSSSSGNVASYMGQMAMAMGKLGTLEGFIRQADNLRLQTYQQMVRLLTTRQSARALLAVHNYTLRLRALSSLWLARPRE

The target of assay [3] is BD-NPR1^178-593 (Arabidopsis) (UniProt P93002).
In assay [4] the target is T2, BD-TGA1 (full length, in pGBKT7) (Arabidopsis) (UniProt Q39237).
T2 sequence: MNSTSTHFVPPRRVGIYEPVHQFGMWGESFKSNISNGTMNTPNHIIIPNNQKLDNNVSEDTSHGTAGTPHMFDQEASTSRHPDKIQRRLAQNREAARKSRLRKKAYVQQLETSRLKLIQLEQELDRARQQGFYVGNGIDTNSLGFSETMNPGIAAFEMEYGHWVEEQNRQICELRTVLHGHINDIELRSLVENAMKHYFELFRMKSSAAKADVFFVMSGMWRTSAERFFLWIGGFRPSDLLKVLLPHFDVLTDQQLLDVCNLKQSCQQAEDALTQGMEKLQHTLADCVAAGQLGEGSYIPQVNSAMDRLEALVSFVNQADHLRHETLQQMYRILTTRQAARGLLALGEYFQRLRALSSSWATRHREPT

Assay [5] concerns the target T3, BD-TGA7 (full length, in pGBKT7) (Arabidopsis) (UniProt Q93ZE2).
T3 sequence: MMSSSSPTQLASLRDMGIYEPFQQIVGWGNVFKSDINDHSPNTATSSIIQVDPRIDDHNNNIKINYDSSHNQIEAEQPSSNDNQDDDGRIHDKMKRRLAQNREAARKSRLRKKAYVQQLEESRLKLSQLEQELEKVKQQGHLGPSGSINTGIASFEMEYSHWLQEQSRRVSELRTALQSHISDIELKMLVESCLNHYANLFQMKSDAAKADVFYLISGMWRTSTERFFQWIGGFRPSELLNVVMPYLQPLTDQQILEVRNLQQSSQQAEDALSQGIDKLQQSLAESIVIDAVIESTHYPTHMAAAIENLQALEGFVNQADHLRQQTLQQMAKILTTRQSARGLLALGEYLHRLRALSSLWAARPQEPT

In assay [6] the target is T4, BD-TGA3 (full length, in pGBKT7) (Arabidopsis) (UniProt Q39234).
T4 sequence: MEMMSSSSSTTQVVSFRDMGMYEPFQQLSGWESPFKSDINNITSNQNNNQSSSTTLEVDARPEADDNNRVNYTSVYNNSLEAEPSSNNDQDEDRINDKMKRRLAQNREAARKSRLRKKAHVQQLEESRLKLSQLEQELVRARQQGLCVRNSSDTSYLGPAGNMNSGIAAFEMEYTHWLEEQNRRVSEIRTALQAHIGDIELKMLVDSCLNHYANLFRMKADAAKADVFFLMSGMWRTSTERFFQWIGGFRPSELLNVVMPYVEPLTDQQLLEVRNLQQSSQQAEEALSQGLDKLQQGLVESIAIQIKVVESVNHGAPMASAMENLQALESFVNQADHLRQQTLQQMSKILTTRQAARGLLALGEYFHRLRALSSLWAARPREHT

Assay [7] concerns the target T5, BD-TGA4 (full length, in pGBKT7) (Arabidopsis) (UniProt Q39162).
T5 sequence: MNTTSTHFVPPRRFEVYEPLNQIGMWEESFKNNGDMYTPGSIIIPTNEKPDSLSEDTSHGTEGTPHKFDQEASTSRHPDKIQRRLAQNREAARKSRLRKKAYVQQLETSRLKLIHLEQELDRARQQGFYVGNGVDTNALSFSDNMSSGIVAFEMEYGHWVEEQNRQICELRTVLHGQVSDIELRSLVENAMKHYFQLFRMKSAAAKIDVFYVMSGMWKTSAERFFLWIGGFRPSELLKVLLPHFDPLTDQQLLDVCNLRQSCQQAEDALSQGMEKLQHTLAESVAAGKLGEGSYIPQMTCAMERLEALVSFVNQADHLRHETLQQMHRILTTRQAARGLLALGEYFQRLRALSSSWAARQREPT

Assay [8] concerns the target T6, BD-TGA6 (full length, in pGBKT7) (Arabidopsis) (UniProt Q39140).
T6 sequence: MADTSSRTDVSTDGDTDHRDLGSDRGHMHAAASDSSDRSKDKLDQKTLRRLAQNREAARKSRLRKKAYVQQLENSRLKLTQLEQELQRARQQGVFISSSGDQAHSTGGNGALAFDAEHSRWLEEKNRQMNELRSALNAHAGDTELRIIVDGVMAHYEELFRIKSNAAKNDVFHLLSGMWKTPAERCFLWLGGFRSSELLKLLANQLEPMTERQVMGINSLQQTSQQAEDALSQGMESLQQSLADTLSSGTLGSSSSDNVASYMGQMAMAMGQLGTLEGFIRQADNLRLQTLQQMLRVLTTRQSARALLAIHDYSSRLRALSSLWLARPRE

Assay [9] addresses BD-NPR1^1-194 (Arabidopsis) (UniProt P93002).
Assay [10] addresses T7, BD-TGA2 (full length, in pGBKT7) (Arabidopsis) (UniProt P43273).
T7 sequence: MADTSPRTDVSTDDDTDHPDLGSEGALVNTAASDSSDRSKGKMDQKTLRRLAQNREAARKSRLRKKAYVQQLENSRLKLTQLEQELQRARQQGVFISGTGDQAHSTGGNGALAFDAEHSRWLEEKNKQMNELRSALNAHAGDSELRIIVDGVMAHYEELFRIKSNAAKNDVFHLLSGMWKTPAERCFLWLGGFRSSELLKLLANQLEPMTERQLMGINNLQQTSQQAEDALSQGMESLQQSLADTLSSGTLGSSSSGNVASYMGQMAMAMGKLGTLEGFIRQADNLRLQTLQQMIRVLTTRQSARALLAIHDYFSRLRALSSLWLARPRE

B1: AD-ICE1 (Inducer of CBF expression 1, full length, in pGADT7) (protein, UniProt Q9LSE2 1-494)
chain: MGLDGNNGGGVWLNGGGGEREENEEGSWGRNQEDGSSQFKPMLEGDWFSSNQPHPQDLQMLQNQPDFRYFGGFPFNPNDNLLLQHSIDSSSSCSPSQAFSLDPSQQNQFLSTNNNKGCLLNVPSSANPFDNAFEFGSESGFLNQIHAPISMGFGSLTQLGNRDLSSVPDFLSARSLLAPESNNNNTMLCGGFTAPLELEGFGSPANGGFVGNRAKVLKPLEVLASSGAQPTLFQKRAAMRQSSGSKMGNSESSGMRRFSDDGDMDETGIEVSGLNYESDEINESGKAAESVQIGGGGKGKKKGMPAKNLMAERRRRKKLNDRLYMLRSVVPKISKMDRASILGDAIDYLKELLQRINDLHNELESTPPGSLPPTSSSFHPLTPTPQTLSCRVKEELCPSSLPSPKGQQARVEVRLREGRAVNIHMFCGRRPGLLLATMKALDNLGLDVQQAVISCFNGFALDVFRAEQCQEGQEILPDQIKAVLFDTAGYAGMI
On to B1, for which the binding entry is “binds” in assay [1]; “binds” in [2]; “no binding” in assay [3]; “binds” in assay [4]; “binds” in assay [5]; “binds” in assay [6]. Moreover, the binding result in assay [7], in assay [8], in assay [9] and in assay [10] was “binds” in each case.
